According to publication PMC4536269:
These are yes or no findings as the source states them, for the method shown. Binding seen in cells or lysates may run through a third protein. Some results given as binding are weak or reduced against the parent protein; the word gives no strength.

By UniProt entry, the sequences of proteins in these tests, tags left out. Where a name states a change or a piece, a line headed by the entry shows the natural chain unless it says otherwise. Chains listed by the source or under a name are the forms on record and can include a tag or linker.
UniProt P11505: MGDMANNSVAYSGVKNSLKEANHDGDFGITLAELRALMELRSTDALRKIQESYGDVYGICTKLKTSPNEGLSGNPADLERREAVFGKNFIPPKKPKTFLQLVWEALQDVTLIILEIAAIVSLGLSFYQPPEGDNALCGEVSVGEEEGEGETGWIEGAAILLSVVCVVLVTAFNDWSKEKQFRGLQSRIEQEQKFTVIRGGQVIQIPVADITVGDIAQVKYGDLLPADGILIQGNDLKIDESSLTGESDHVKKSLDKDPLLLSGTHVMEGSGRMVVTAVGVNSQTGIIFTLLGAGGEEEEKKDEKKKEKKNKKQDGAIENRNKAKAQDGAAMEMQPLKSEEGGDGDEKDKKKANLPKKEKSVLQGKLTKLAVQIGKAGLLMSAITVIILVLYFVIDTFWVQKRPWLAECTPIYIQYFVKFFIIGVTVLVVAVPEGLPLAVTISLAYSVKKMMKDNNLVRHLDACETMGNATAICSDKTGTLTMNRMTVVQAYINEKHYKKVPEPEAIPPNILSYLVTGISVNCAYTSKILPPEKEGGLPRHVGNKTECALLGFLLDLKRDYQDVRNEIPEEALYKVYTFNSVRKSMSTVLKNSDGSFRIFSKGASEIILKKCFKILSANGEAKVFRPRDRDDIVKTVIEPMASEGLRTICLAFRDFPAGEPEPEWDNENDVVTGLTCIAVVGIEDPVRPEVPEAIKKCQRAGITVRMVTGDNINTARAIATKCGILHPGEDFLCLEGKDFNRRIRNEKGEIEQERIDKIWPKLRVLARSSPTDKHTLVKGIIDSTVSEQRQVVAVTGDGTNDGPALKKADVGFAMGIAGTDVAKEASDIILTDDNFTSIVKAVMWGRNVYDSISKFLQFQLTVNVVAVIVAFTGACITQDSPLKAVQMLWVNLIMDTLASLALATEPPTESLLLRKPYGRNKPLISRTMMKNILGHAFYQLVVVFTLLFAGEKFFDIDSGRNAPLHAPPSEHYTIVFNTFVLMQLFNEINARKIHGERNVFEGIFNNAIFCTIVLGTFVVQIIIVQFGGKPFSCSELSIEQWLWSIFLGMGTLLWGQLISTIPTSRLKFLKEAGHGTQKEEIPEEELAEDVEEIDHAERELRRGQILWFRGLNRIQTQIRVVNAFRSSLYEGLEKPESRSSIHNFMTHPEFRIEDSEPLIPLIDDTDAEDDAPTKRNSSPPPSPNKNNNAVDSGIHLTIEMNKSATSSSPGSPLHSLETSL
Plasma membrane calcium pump isoform 2 (P11506-14, form named): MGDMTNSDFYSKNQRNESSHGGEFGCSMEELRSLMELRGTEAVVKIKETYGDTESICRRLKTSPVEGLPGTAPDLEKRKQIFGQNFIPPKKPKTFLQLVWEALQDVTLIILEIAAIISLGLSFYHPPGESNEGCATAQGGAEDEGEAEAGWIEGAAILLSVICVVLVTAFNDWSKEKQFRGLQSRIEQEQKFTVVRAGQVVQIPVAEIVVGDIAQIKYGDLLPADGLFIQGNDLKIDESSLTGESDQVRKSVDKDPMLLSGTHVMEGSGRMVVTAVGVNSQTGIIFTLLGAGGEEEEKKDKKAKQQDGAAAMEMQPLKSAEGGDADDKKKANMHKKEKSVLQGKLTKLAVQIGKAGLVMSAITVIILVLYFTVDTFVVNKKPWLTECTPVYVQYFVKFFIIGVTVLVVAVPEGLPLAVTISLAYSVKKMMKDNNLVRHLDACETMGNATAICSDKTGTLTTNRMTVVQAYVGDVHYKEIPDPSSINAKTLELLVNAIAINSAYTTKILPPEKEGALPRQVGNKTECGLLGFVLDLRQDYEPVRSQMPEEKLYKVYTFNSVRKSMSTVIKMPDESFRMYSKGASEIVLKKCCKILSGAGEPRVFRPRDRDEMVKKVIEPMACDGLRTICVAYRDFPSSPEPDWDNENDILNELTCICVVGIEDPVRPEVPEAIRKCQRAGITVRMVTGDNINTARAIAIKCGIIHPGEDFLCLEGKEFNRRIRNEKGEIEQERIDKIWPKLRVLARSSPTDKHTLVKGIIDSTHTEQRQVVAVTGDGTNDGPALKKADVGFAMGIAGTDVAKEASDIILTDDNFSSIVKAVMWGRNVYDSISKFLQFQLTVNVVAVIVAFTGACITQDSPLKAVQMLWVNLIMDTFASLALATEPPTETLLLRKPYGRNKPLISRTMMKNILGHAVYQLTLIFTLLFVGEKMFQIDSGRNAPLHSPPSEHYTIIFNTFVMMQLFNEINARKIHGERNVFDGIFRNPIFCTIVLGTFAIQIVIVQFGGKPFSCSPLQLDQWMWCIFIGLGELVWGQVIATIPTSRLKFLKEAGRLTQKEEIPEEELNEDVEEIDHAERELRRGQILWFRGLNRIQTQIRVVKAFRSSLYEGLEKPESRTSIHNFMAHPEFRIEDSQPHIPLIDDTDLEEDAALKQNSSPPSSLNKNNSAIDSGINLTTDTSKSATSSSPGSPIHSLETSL
Plasma membrane calcium pump isoform 3 (Q64568-3, form named): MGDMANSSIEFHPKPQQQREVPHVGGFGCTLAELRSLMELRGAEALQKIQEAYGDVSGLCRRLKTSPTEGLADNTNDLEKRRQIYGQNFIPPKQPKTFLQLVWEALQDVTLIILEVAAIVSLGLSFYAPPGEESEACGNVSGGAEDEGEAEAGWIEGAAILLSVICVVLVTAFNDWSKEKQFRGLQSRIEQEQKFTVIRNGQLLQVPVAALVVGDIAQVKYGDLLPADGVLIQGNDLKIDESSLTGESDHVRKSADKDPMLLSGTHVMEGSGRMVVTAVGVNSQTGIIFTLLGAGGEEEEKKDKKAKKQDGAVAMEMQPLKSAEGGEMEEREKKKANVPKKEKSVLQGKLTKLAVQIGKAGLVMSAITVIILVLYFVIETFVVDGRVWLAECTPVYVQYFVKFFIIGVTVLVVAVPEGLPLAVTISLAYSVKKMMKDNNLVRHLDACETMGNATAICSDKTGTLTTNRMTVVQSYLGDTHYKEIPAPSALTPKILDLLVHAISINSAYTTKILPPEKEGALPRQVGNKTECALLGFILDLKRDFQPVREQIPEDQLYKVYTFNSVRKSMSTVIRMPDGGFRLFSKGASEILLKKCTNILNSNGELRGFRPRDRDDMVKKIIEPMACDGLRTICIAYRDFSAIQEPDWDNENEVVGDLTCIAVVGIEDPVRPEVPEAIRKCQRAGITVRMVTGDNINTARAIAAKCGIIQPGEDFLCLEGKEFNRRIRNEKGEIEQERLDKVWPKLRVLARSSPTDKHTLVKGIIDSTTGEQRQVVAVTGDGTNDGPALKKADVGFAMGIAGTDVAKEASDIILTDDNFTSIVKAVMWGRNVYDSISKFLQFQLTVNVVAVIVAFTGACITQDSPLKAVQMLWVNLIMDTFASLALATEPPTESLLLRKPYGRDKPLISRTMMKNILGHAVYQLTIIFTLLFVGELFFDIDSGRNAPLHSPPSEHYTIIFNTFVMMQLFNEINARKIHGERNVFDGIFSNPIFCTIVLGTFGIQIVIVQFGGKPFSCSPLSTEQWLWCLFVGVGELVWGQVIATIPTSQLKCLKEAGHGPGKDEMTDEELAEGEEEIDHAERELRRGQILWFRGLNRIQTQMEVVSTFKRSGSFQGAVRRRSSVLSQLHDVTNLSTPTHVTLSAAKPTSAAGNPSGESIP
UniProt Q64542: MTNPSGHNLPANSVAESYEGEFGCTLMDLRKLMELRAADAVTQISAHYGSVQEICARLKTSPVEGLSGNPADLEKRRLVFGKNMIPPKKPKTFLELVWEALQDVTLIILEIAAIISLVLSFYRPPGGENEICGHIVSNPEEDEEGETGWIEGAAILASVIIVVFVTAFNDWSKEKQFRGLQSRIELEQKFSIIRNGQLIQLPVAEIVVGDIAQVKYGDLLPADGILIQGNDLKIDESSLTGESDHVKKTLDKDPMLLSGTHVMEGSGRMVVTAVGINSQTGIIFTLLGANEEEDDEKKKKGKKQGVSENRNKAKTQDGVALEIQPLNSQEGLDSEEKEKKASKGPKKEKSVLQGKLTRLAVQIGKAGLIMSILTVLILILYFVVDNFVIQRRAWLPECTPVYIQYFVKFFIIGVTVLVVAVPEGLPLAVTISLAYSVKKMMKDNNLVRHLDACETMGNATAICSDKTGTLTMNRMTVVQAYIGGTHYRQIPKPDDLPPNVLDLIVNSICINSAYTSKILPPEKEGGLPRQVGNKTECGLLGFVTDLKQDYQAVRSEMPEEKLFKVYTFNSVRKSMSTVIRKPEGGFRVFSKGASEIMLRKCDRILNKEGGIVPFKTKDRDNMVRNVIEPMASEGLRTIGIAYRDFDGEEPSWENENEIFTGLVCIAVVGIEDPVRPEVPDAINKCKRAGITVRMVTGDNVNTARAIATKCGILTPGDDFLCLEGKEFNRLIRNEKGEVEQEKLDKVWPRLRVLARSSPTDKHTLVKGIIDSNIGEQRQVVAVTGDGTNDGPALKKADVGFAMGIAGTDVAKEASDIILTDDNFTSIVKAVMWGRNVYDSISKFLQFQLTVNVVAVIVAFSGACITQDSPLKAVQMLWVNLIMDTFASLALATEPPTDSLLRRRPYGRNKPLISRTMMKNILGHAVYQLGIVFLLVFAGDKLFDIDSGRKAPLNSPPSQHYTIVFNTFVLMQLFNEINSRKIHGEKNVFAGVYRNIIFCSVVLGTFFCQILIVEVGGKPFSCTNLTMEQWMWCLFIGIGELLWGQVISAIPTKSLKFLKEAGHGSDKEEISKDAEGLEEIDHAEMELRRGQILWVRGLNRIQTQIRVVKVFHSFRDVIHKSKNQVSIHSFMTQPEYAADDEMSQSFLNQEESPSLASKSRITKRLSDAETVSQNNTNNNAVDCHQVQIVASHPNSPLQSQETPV

Assays:
[1] = molecular target: Calcineurin (rat (endogenous in PC12)) (UniProt P63329); assay: co-IP; polyclonal anti-calcineurin antibodies and protein A/G agarose on RIPA lysates of differentiated PC12 lines (control, _2, _3), 4 °C; blots with anti-PMCA1, anti-PMCA2, anti-PMCA3, anti-PMCA4
[2] = molecular target: Calcineurin (rat (endogenous in PC12)) (UniProt P63329); assay: co-IP; as a2, in the PMCA2-reduced (_2) and PMCA3-reduced (_3) differentiated PC12 lines only; blot with anti-PMCA4; immunosignal lowered by ~51 and ~62 % against mock-transfected cells

binding [1] | binding [2] | Substance
no binding | – | Plasma membrane calcium pump isoform 1 (from UniProt P11505 1-1220)
binds | – | Plasma membrane calcium pump isoform 2 (from UniProt P11506-14 1-1198)
no binding | – | Plasma membrane calcium pump isoform 3 (from UniProt Q64568-3 1-1159)
binds | binds weakly | Plasma membrane calcium pump isoform 4 (from UniProt Q64542 1-1203)
